# Measured values published in PubChem BioAssay AID248 (DTP/NCI, 2004).
# The list does not hold the whole screen: it gathers tests that were run many times, whatever their T/C, doses with no T/C, and many T/C values between a quarter and a half above the control. Other doses and runs of a compound stand elsewhere. T/C gives the treated animals as a percentage of the vehicle group. Some entries give survivors of the animals treated and no T/C: the source holds a T/C of zero for them, seemingly a mark for toxic or unscored doses. Some doses without a T/C left all or most animals alive at the check, yet need not have been tolerated: survival well below the control is almost never listed, so the zero probably covers shortened survival too. Counts of survivors are from the toxicity check (mostly the fifth day) where no day follows; animals may have died later. Schedules are NCI's codes, taken here to give the interval after Q, in days (D) or hours (H), and the number of doses after X. For survival time, this PubChem deposit counts one and a half times the control or more as active, and values a quarter to a half above the control carry no call in these data; other NCI protocols may use other cut-offs.
# Tested on: L1210 leukemia ip in BDF1 mice, survival T/C
# Assay: NCI In Vivo Anticancer Drug Screen. Data for tumor model L1210 Leukemia (intraperitoneal) in B6D2F1 (BDF1) mice
# Settings: T/C endpoint: mean survival time, higher T/C = longer survival
# [1] = dose: 400.0 mg/kg/injection, schedule: Q01DX001 (ip), vehicle: saline
# [2] = dose: 400.0 mg/kg/injection, schedule: Q04DX003 (ip), vehicle: Klucel (hydroxypropylcellulose) (HPC)
smiles,measurement,setting,value
O=C1NC2(C=CC(Br)CC2)C(=O)C12CCCCC2 (centres undefined) (tested in a mixture with another compound),survivor count,"dose: 75.0 mg/kg/injection, schedule: Q01DX001 (ip), vehicle: saline",6 of 6
same,survivor count,"dose: 300.0 mg/kg/injection, schedule: Q01DX001 (ip), vehicle: saline",6 of 6
COc1ccc2c(c1)CN(C)CC2,survivor count,"dose: 150.0 mg/kg/injection, schedule: Q01DX001 (ip), vehicle: other",2 of 6
same,survivor count,"dose: 300.0 mg/kg/injection, schedule: Q01DX001 (ip), vehicle: other",0 of 6
CCCCCC(=O)N(CCCC)CCCC,survivor count,"dose: 400.0 mg/kg/injection, schedule: Q01DX009 (ip), vehicle: carboxymethylcellulose (CMC)",2 of 3
O=C(OCCCl)C1C2CCC(O2)C1C(=O)OCCCl (centres undefined),T/C,"dose: 3.12 mg/kg/injection, schedule: Q04DX002 (ip), vehicle: Klucel (hydroxypropylcellulose) (HPC)",127 % of control
same,survivor count,"dose: 6.25 mg/kg/injection, schedule: Q04DX002 (ip), vehicle: Klucel (hydroxypropylcellulose) (HPC)",0 of 3
same,survivor count,"dose: 12.5 mg/kg/injection, schedule: Q04DX002 (ip), vehicle: Klucel (hydroxypropylcellulose) (HPC)",0 of 3
same,survivor count,"dose: 25.0 mg/kg/injection, schedule: Q04DX002 (ip), vehicle: Klucel (hydroxypropylcellulose) (HPC)",0 of 3
same,survivor count,"dose: 50.0 mg/kg/injection, schedule: Q04DX002 (ip), vehicle: Klucel (hydroxypropylcellulose) (HPC)",0 of 3
same,survivor count,"dose: 100.0 mg/kg/injection, schedule: Q04DX002 (ip), vehicle: Klucel (hydroxypropylcellulose) (HPC)",0 of 3
same,survivor count,"dose: 200.0 mg/kg/injection, schedule: Q04DX002 (ip), vehicle: Klucel (hydroxypropylcellulose) (HPC)",0 of 3
same,survivor count,"dose: 400.0 mg/kg/injection, schedule: Q04DX002 (ip), vehicle: Klucel (hydroxypropylcellulose) (HPC)",0 of 3
O=C1C=C(O)c2[nH]c(=O)ccc2C1=O,survivor count,"dose: 80.0 mg/kg/injection, schedule: Q01DX001 (ip), vehicle: saline",1 of 4
same,survivor count,"dose: 100.0 mg/kg/injection, schedule: Q01DX001 (ip), vehicle: saline",0 of 4
same,survivor count,"dose: 200.0 mg/kg/injection, schedule: Q01DX001 (ip), vehicle: saline",0 of 4
same,survivor count,[1],0 of 4
CCOC(=O)CCc1ccc(N=NN(C)C)cc1,T/C,"dose: 83.0 mg/kg/injection, schedule: Q01DX009 (ip), vehicle: saline",125 % of control
O=NN(CC(=O)O)C(c1ccccc1)(c1ccccc1)c1ccccc1Cl,survivor count,[2],2 of 6
CCOc1c(/C=N/NC(=O)c2ccccc2OC)cccc1OC,survivor count,"dose: 400.0 mg/kg/injection, schedule: Q01DX009 (ip), vehicle: Klucel (hydroxypropylcellulose) (HPC)",4 of 6
CC(=O)[O][Hg][c]1cc[c]([Hg][O]C(C)=O)s1,survivor count,"dose: 12.0 mg/kg/injection, schedule: Q01DX009 (ip), vehicle: Klucel (hydroxypropylcellulose) (HPC)",6 of 6
same,survivor count,"dose: 25.0 mg/kg/injection, schedule: Q04DX003 (ip), vehicle: Klucel (hydroxypropylcellulose) (HPC)",3 of 6
same,survivor count,"dose: 50.0 mg/kg/injection, schedule: Q04DX003 (ip), vehicle: Klucel (hydroxypropylcellulose) (HPC)",1 of 6
same,survivor count,"dose: 100.0 mg/kg/injection, schedule: Q04DX003 (ip), vehicle: Klucel (hydroxypropylcellulose) (HPC)",0 of 6
same,survivor count,"dose: 200.0 mg/kg/injection, schedule: Q04DX003 (ip), vehicle: Klucel (hydroxypropylcellulose) (HPC)",0 of 6
same,survivor count,[2],2 of 6
Cc1cc(=O)c(Cl)cc(=O)[nH]1,survivor count,"dose: 100.0 mg/kg/injection, schedule: Q01DX001 (ip), vehicle: saline with Tween-80",1 of 3
same,survivor count,"dose: 200.0 mg/kg/injection, schedule: Q01DX001 (ip), vehicle: saline with Tween-80",0 of 3
same,survivor count,"dose: 400.0 mg/kg/injection, schedule: Q01DX001 (ip), vehicle: saline with Tween-80",0 of 3
Cc1ncc(CO)c(C)c1O,T/C,"dose: 0.1 mg/kg/injection, schedule: Q02DX010 (ip), vehicle: saline",125 % of control
same,survivor count,[1],0 of 6
same,survivor count,"dose: 400.0 mg/kg/injection, schedule: Q01DX009 (ip), vehicle: saline",0 of 6
same,survivor count,"dose: 800.0 mg/kg/injection, schedule: Q01DX001 (ip), vehicle: saline",0 of 6
same,survivor count,"dose: 800.0 mg/kg/injection, schedule: Q01DX009 (ip), vehicle: saline",0 of 6
same,survivor count,"dose: 1200.0 mg/kg/injection, schedule: Q01DX001 (ip), vehicle: saline",0 of 6
same,survivor count,"dose: 1600.0 mg/kg/injection, schedule: Q01DX001 (ip), vehicle: saline",0 of 6
CCCCC=C1CC(C)CC(C)C1 (centres undefined),survivor count,"dose: 200.0 mg/kg/injection, schedule: Q01DX009 (ip), vehicle: saline with Tween-80",3 of 3
CCCCCCCCCOC(=O)NC1c2ccccc2Oc2ccccc21,survivor count,"dose: 200.0 mg/kg/injection, schedule: Q01DX009 (ip), vehicle: acetone",6 of 6
same,survivor count,"dose: 400.0 mg/kg/injection, schedule: Q01DX009 (ip), vehicle: acetone",6 of 6
